# Results as given in PubChem BioAssay AID493014 (National Center for Advancing Translational Sciences (NCATS), 2011).
# The other results are listed elsewhere or left out. These are further read-outs of the screen, such as a control signal, another cell line or another target. No call is given for them. The list favours compounds with an active or inconclusive main result. Words in brackets tell the shape of the fitted curve; partial curves, single points and poor fits give uncertain potencies.
# Assay: qHTS Assay to Find Inhibitors of Chronic Active B-Cell Receptor Signaling
# Details: ABC-DLBCL IkBa-CBG/CBR reporter, luminescence ratio (green luciferase fused to IkBa over red control in TMD8 lymphoma cells), 4 h
# Summary of the method: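 Compounds up to 46 uM were incubated four hours with TMD8 cells whose green CBG68 luciferase is fused to IkappaBalpha; red CBR luminescence normalised the signal, and concentration-effect curves were fitted to fusion, red and ratio data.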
# [1] = measured here: CBR red luminescence, cell number
SMILES,AC50 [1],AC50 (measured here: IkBa-CBG green luminescence)
Cc1ccc(N2CC(NC(=O)c3ccco3)CC2=O)cc1 (centres undefined),"2 µM [falling, partial curve, poor fit]",–
O=C1OCCN/C1=C\C(=O)c1ccc(Cl)cc1,"17.8 µM [falling, single point]",–
O=C(Cc1ccsc1)NNC(=O)c1cccc(Cl)c1,"5.62 µM [rising, single point]",–
COc1cc(/C=C/C(=O)OCC(=O)Nc2ccc3c(c2)OCCO3)ccc1OCC#N,"13 µM [rising, single point]",–
O=C(NC1CCCCC1)c1cc(C(=O)c2ccccc2Br)c[nH]1,"3.98 µM [falling, partial curve, poor fit]",–
O=C(NNC(=O)C1C2CCC(C2)C1C(=O)O)c1cccc(Cl)c1 (centres undefined),"14.1 µM [falling, partial curve]",–
Cc1ccc(NC(=O)CN(C)S(=O)(=O)c2ccc3[nH]c(=O)oc3c2)c(C)c1,"12.6 µM [rising, partial curve]",–
Cc1cccc(OCC(=O)NNC(=O)C2CCN(c3ncnc4sc(C)c(C)c34)CC2)c1,"6.51 µM [falling, partial curve, poor fit]",–
Fc1ccc(Br)cc1C1C=C(c2ccc(Br)cc2)Nc2ncnn21 (centres undefined),"29.1 µM [falling, single point]",–
CC(CN1C(C)CCCC1C)OC(=O)c1ccccc1Br (centres undefined),"3.16 µM [rising, single point]",–
COc1ccc(Cl)cc1N(C(=O)Nc1cccc(Cl)c1)C1=NCC(C)S1 (centres undefined),"18.4 µM [rising, single point]",–
CC(=C\c1ccccc1)/C=C1/SC(=O)N(CCCC(=O)Nc2ccc(C(=O)O)cc2)C1=O,"10 µM [falling, partial curve]",–
CNC(=O)/C=C1\NC(C)(C)Cc2ccccc21,"14.6 µM [falling, single point]",–
Cc1ccc(C2N(c3ccc(Cl)cc3)C(=O)N3CCCN23)cc1 (centres undefined),"0.355 µM [rising, full curve, poor fit]",–
O=C(NCc1ccco1)[C@@H]1CCCN1C(=O)c1cccs1,"0.366 µM [rising, full curve, poor fit]",–
O=C(NNC(=S)Nc1ccc(F)c(Cl)c1)c1ccccc1Br,"15.8 µM [falling, single point]",–
O=C(COc1ccc(/C=N/NC(=O)c2ccc(O)cc2)cc1)Nc1ccc([N+](=O)[O-])cc1,"0.92 µM [falling, full curve]",–
CC(OC(=O)c1cccs1)C(=O)NCc1cccs1 (centres undefined),"31.6 µM [rising, single point]",–
CN(C)/C=C1\C(=O)N(C)N=C1C(F)(F)F,"35.5 µM [rising, single point]","35.5 µM [falling, single point]"
O=c1c([N+](=O)[O-])c(NCCN2CCCCCC2)c2ccccc2n1-c1ccccc1,"11.6 µM [falling, partial curve, poor fit]",–
CN(C)C(=O)c1ccc(NC(=O)COc2ccc([N+](=O)[O-])cc2)cc1,"12.6 µM [rising, partial curve, poor fit]",–
Cc1ccc(-c2nc(CN(C)C)cc(CN(C)C)c2O)cc1,"11.2 µM [falling, partial curve]",–

# Random excerpt: two compounds from above.
SMILES,AC50 [1],AC50 (measured here: IkBa-CBG green luminescence)
Cc1ccc(N2CC(NC(=O)c3ccco3)CC2=O)cc1 (centres undefined),"2 µM [falling, partial curve, poor fit]",–
O=C(NCc1ccco1)[C@@H]1CCCN1C(=O)c1cccs1,"0.366 µM [rising, full curve, poor fit]",–

# (further entries)

SMILES,AC50 [1],AC50 (measured here: IkBa-CBG green luminescence)
O=C(CC1Oc2ccccc2NC1=O)NCCCN1CCCC1=O (centres undefined),"23.1 µM [falling, single point]",–
Cc1ccc(NC(=S)NCc2ccccn2)cc1,"35.5 µM [falling, single point]",–
CC(C)(C)Nc1nc(C(N)=O)nc(N2CCOCC2)n1,"1.84 µM [rising, partial curve, poor fit]",–
COCCCN(C(C)=O)c1nc(-c2ccccc2)cs1,"0.259 µM [rising, full curve, poor fit]",–
Clc1ccccc1C(c1nnnn1Cc1ccco1)N1CCN(Cc2ccco2)CC1 (centres undefined),"35.5 µM [falling, single point]",–
COc1ccc(NC(=O)c2oc3ccccc3c2NC(=O)c2ccco2)cc1,"23.1 µM [falling, partial curve, poor fit]",–
CCCCn1c(N)c(N(CC)C(=O)c2ccccc2C)c(=O)[nH]c1=O,"3.16 µM [rising, full curve]",–
Cc1nc2cccc(C(=O)NCc3ccccc3)c2o1,"10 µM [falling, partial curve]",–
O=C(CCl)Nc1ccc(Oc2cnc3ccccc3n2)cc1,"10 µM [falling, partial curve]",–
Cc1cc(C)c(NC(=O)C2CCCCN2C)c(C)c1 (centres undefined),"0.259 µM [falling, full curve, poor fit]",–
CCC1CCCCN1C(=S)NC(=O)c1ccco1 (centres undefined),"29.1 µM [falling, single point]",–
Clc1ccc(-c2nnc(-c3ccccc3)nc2N2CCSCC2)cc1,"9.2 µM [falling, partial curve, poor fit]",–
Cc1ccccc1N=C1NC(=O)/C(=C/c2cccnc2)S1,"7.08 µM [falling, partial curve]",–
COc1ccccc1CN(Cc1nc2ccccc2c(=O)[nH]1)C(=O)Nc1cccc(C)c1,"14.6 µM [falling, single point]",–
Cc1cccc(/C=C2\Sc3ccc(C(=O)N4CCOCC4)cc3N(C)C2=O)c1,"20 µM [falling, single point]",–
COC(=O)CN(c1nc(C)cc(OC)n1)S(=O)(=O)c1ccccc1,"18.4 µM [rising, single point]",–
O=C(CCc1ccccc1)Nc1ccc2c(c1)OCO2,"0.0891 µM [rising, full curve, poor fit]",–
O=[N+]([O-])c1cccnc1Oc1cccnc1,"5.62 µM [falling, full curve]",–
Cn1c(=O)c2cc(S(=O)(=O)NCCC(=O)NCCc3ccc(Cl)cc3)ccc2n(C)c1=O,"1.78 µM [falling, partial curve]",–
CC(C)[C@H](NC(=O)c1ccccc1)C(=O)OCC(=O)Nc1ncc(Cl)cc1Cl,"16.4 µM [rising, partial curve]",–
COc1ccc2c(=O)c3c(=O)n(CCc4ccccc4)c(C(C)C)nc3oc2c1,"35.5 µM [falling, single point]",–
